The whole screen tested about 320,000 compounds, of which about 22,000 (6.9%) were called active. Inconclusive results, whose numbers are uncertain, are shown with a selection of clear calls. The call rests on the fitted dose curve; in most records, active means well fitted inhibition curve with a large enough effect; inconclusive means small, poorly fitted or top-dose-only effect, or another doubt; inactive means no such curve, though single readings can be large or run the other way. Potencies of inconclusive entries are doubtful fits and often do not repeat.
Experiment: Primary qHTS for delayed death inhibitors of the malarial parasite plastid, 96 hour incubation
Conditions: P. falciparum luciferase reporter growth; series mostly up to 28.7 µM; activity change, negative = inhibition: at the top concentration
Outline: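 P. falciparum expressing integrated firefly luciferase grown in erythrocytes (2% hematocrit, 0.05% parasitemia final) with compounds for 96 hours at 37 C, 5% CO2. Growth inhibition read as loss of luminescence after adding luciferase detection reagent.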
On the % scale 0 is the no-effect control and ±100 the full control effect; potency means the concentration at half of the fitted maximal effect.

Q: With `CCOc1ccc(Oc2c(/C=N/NC(=O)C3CC3)c(C)nn2-c2ccccc2)cc1` as the molecule, how does the Potency read?
A: inconclusive: 2.08 µM [inhibitor, full curve]

Q: For `COc1ccc(C(CNC(=O)c2ccc(OCc3c(C)noc3C)cc2)N2CCCC2)cc1` (stereo not drawn), which Potency is on record?
A: active: 3.7 µM

Q: For `O=C(c1ccc(N2CCOCC2)c([N+](=O)[O-])c1)N1CCN(S(=O)(=O)c2cccs2)CC1`, which Potency is on record?
A: inconclusive: 11.7 µM [inhibitor, single point]

Q: For `CC(C)C(=O)Nc1cc(C(F)(F)F)ccc1-n1ccnc1`, which “activity change, negative = inhibition” value is on record?
A: inactive: 49.2%

Q: For `CCCCN1C(=O)C(=O)N(CC(=O)N2N=C3/C(=C/c4ccco4)CCCC3C2c2ccco2)C1=O` (stereo not drawn), which “activity change, negative = inhibition” value is on record?
A: inactive: 75.8%

Q: For `O=C(COC(=O)C1CCC1)c1c[nH]c2ccccc12`, which “activity change, negative = inhibition” value is on record?
A: inactive: -14.2%

Q: Which “activity change, negative = inhibition” value does the source give for `O=C(N/N=C/c1cccc(Br)c1)c1ccc(N2CCCC2=O)cc1` here?
A: inactive: 11.4%

Q: With `CCC(C(=O)NCc1ccco1)N(C(=O)CNS(=O)(=O)c1ccccc1)c1ccc(OC)cc1` (stereo not drawn) as the molecule, how does the Potency read?
A: inconclusive: 6.57 µM [inhibitor, single point]

Q: Which Potency does the source give for `O=C(CCS(=O)(=O)c1cccc2nsnc12)N1CCN(C(=O)c2ccco2)CC1` here?
A: inconclusive: 0.0026 µM [inhibitor, full curve, poor fit]

Q: With `C=CCn1c(=O)c(C(=O)Nc2ccc(C)cn2)c(O)c2ccccc21` as the molecule, how does the Potency read?
A: inconclusive: 13.1 µM [inhibitor, single point]

Q: With `N#C/C(=C\c1c(N2CCOCC2)nc2ccccn2c1=O)C(=O)NC1CCS(=O)(=O)C1` (stereo not drawn) as the molecule, how does the Potency read?
A: inconclusive: 0.928 µM [inhibitor, full curve, poor fit]

Q: Which Potency does the source give for `CC(=O)c1c(C)n(Cc2ccccc2Cl)c2ccc(O)cc12` here?
A: inconclusive: 0.0738 µM [inhibitor, full curve, poor fit]

Q: For `Cc1ccc(S(=O)(=O)Cc2ccccc2Cl)cc1`, which Potency is on record?
A: inconclusive: 18.5 µM [inhibitor, single point]

Q: With `Cc1csc2ncc(C(=O)NCCC(c3ccccc3)c3ccccc3)c(=O)n12` as the molecule, how does the “activity change, negative = inhibition” value read?
A: inactive: 11.1%

Q: With `Cc1cccc(NC(=O)CSc2cn[nH]n2)c1` as the molecule, how does the “activity change, negative = inhibition” value read?
A: inactive: 2.81%

Q: For `Cc1ccc(-n2c(C)cc(C3=NNC(=NC4CC4)SC3)c2C)cc1C`, which Potency is on record?
A: inconclusive: 18.5 µM [inhibitor, single point]

Q: With `O=C(CSCc1ccc(Cl)cc1)Nc1ccc2c(c1)OCO2` as the molecule, how does the Potency read?
A: active: 11.7 µM

Q: With `COc1cc(NC(=S)NCc2ccco2)c(OC)cc1Cl` as the molecule, how does the Potency read?
A: inconclusive: 2.94 µM [inhibitor, full curve, poor fit]

Q: With `O=C(Nc1ccc(C(=O)NCc2ccc(F)cc2)cc1)C1=CSCCO1` as the molecule, how does the “activity change, negative = inhibition” value read?
A: inactive: 30.3%

Q: With `Cc1cc2nccc(-c3cccnc3)n2n1` as the molecule, how does the “activity change, negative = inhibition” value read?
A: inactive: 33.1%

Q: Which Potency does the source give for `CC(=O)c1ccccc1OCC(O)CN1CCN(C(c2ccccc2)c2ccccc2)CC1` (stereo not drawn) here?
A: inconclusive: 18.5 µM [inhibitor, single point]

Q: For `O=C(Nc1ccc(C(=O)N2CCCCC2)cc1)C1=CSCCO1`, which Potency is on record?
A: inconclusive: 3.29 µM [inhibitor, partial curve, poor fit]

Q: For `Cc1ccc2nc(NC(=O)COC(=O)CSc3nc(C)cc(C)n3)sc2c1`, which “activity change, negative = inhibition” value is on record?
A: inactive: 51.8%

Q: For `Oc1ccc(/C=N/NC(=S)NC2CC3CCC2C3)cc1` (stereo not drawn), which Potency is on record?
A: inconclusive: 14.7 µM [inhibitor, single point]

Q: Which Potency does the source give for `CSC1=NC2(C)CCCCC2C12C=CC(=O)C=C2` (stereo not drawn) here?
A: active: 13.1 µM

Q: With `S=C(Nc1ccc2nccnc2c1)N1CCOCC1` as the molecule, how does the Potency read?
A: inconclusive: 10.4 µM [inhibitor, single point]

Q: Which Potency does the source give for `CCOC(=O)CSc1nc(C(C)C)nc2sc(C)c(C)c12` here?
A: inconclusive: 13.1 µM [inhibitor, single point]

Q: Which Potency does the source give for `Nc1ccc(Oc2ccccc2F)nc1` here?
A: inconclusive: 0.828 µM [inhibitor, full curve, poor fit]

Q: Which Potency does the source give for `COc1ccc(/C(C)=N\NC(=O)CSc2nnc(C)s2)cc1` here?
A: inconclusive: 13.1 µM [inhibitor, single point]

Q: For `Cc1ccsc1-c1nc(-c2ccccc2)c(-c2ccccc2)[nH]1`, which Potency is on record?
A: inconclusive: 14.7 µM [inhibitor, partial curve, poor fit]

Q: Which Potency does the source give for `COc1ccccc1CCNC(=O)C(=O)Nc1cc2c3c(c1)CC(=O)N3CCC2` here?
A: active: 1.04 µM

Q: Which Potency does the source give for `CCCCCCCCCCCCCC[N+](C)(C)C` here?
A: active: 0.953 µM

Q: For `O=C(CCn1ccc2ccccc21)NC1CCCc2ccccc21` (stereo not drawn), which “activity change, negative = inhibition” value is on record?
A: inactive: -89.9%

Q: For `Cc1ccc(CNC(=O)c2ccccc2SCC(=O)NCC2CCCCC2)cc1`, which Potency is on record?
A: inconclusive: 13.1 µM [inhibitor, single point]

Q: For `CC(C)C(NC(=O)c1ccccc1F)C(=O)Nc1nccs1` (stereo not drawn), which Potency is on record?
A: inconclusive: 18.5 µM [inhibitor, single point]

Q: Which “activity change, negative = inhibition” value does the source give for `O=C(CC1C(=O)NCCN1Cc1ccccc1)NCCC1=CCCCC1` (stereo not drawn) here?
A: inactive: 6.35%

Q: For `Cc1noc(C)c1COc1ccc(C(=O)OC(C)C(=O)Nc2ccc(S(=O)(=O)N3CCOCC3)cc2)cc1` (stereo not drawn), which “activity change, negative = inhibition” value is on record?
A: inactive: -6.58%

Q: With `CC(C)c1ccc(CNc2c([N+](=O)[O-])c(=O)oc3ccccc23)cc1` as the molecule, how does the “activity change, negative = inhibition” value read?
A: inactive: 46.2%

Q: For `COc1cccc2cc(-c3csc(NC(=O)CCC(=O)NCCCN4CCC(C)CC4)n3)c(=O)oc12`, which “activity change, negative = inhibition” value is on record?
A: inactive: -8.52%

Q: Which Potency does the source give for `Cc1cc2nnc(SCC(=O)Nc3ccc(Cl)cc3)n2c(N)n1` here?
A: inconclusive: 10.4 µM [inhibitor, single point]

Q: With `Cc1onc(-c2ccccc2Cl)c1C(=O)N1CCN=C1SCc1cccnc1` as the molecule, how does the Potency read?
A: active: 2.08 µM

Q: With `Cn1c(NC(=O)c2ccc(F)cc2)c(-c2ccccn2)c(=O)c2ccccc21` as the molecule, how does the “activity change, negative = inhibition” value read?
A: inactive: 28.6%

Q: For `CCOCCCNC(=O)C1CC(=O)N(CCc2ccc(C)cc2)C1` (stereo not drawn), which Potency is on record?
A: inconclusive: 18.5 µM [inhibitor, single point]

Q: Which Potency does the source give for `O=C(CNCc1ccncc1)Nc1cc(S(=O)(=O)N2CCCCC2)ccc1Cl` here?
A: inconclusive: 9.28 µM [inhibitor, partial curve]

Q: Which “activity change, negative = inhibition” value does the source give for `O=S(=O)(Nc1cccc(-n2cnnn2)c1)c1ccccc1C(F)(F)F` here?
A: inactive: 55.9%

Q: Which Potency does the source give for `CC(=O)N1CC(=O)Nc2ccc(F)cc2C1c1ccccc1` (stereo not drawn) here?
A: inconclusive: 9.28 µM [inhibitor, partial curve]

Q: Which Potency does the source give for `O=C(COC(=O)C1CC(O)CN1C(=O)Oc1ccccc1)c1ccc(Br)cc1` (stereo not drawn) here?
A: inconclusive: 18.5 µM [inhibitor, single point]

Q: For `Cc1c(Cl)cnc(NC(=O)COC(=O)C(NC(=O)c2ccco2)C(C)C)c1Cl` (stereo not drawn), which Potency is on record?
A: inconclusive: 11.7 µM [inhibitor, partial curve, poor fit]
